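Phenotypic screen: M. tuberculosis growth, glucose 7H9 medium, 3 days; the read-out is not stated. Compounds at 500 µM. Direction is inferred from retests: higher values go with more growth inhibition. Of about 18,000 compounds tested this way, about 1,400 (7.9%) reached 50% or more in at least one test.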

Results are given as percent effect. The record does not define 0% and 100%; most values in the screen are far below 50% and negative numbers occur (in some assays of this library far below -100). The compounds are a random part of those screened.

* CCN(CC)CC(=O)Nc1ccn(CCC(N)=O)n1 : -2.189%
* CCOCCN1CCN(CC(=O)N2CCCC2)CC1 : 6.075%
* Cc1cc(C(=O)NCCCO)c2ccc(F)cc2n1 : -5.29%
* OC1(Cc2ccccc2F)CCNC1 (centres unmarked) : -0.03726%
* CCCn1cc(NC(C(N)=O)c2ccccc2)cn1 (centres unmarked) : 32.85%
* CCCOc1cccc(NC(=O)C(C)n2cncn2)c1 (centres unmarked) : 60.9%
* CCCn1ncc(CN(C)CCC(=O)NC)c1C : -8.743%
* CC(N)c1noc(-c2ccccc2)n1 (centres unmarked) : 37.6%
* O=C(N[C@H](CO)c1ccccc1)c1cccnc1 : 7.436%
* CCc1cc(C)c(C(=O)NC2CNC[C@@H]2OC)o1 (some centres unmarked) : 16.65%
* Cc1nn(C)c(C)c1CC(=O)NCCc1ccccn1 : 8.241%
* OC(CSc1ncccc1Br)CN1CCOCC1 (centres unmarked) : 35.65%
* Cc1cc(N)n(CC(=O)NCc2cc(C3CC3)on2)n1 : 30.24%
* Cc1cc(Br)cnc1N(C)CC(O)CN1CCOCC1 (centres unmarked) : -3.921%
* O=C(NCCc1ncc[nH]1)c1cccnc1SC(F)F : -5.549%
* CC(=O)NC1CCN(C2CCCCC2)CC1 : -1.108%
* CCN(CCn1cccn1)C(=O)c1cc(C)n[nH]1 : 4.627%
* C=C(C)CNC(=O)NCCc1cnn(C)c1 : 7.97%
* NC(=O)COC(=O)c1cccnc1-n1cncn1 : -0.06953%
* CCc1ccc(CN2CC(N3CCOCC3)C2)o1 : 86.67%
* COCCCNC(=O)CSc1ccc2ccccc2n1 : 23.73%
* CC1CCN(C(=O)CSc2nncs2)CC1 : 49.7%
* Cc1cccc(NC(=O)CN2CCN(C)CC2)c1C : 12.29%
* CCCNc1nnc(S(=O)(=O)CCCC#N)s1 : 8.405%
* COCCNC(C)(C)CO : 9.538%
* O=C1CCCN1CCCNCc1cccs1 : 1.577%
* CN(C)C(=O)C1CCN(Cc2ccc(F)cc2)CC1 : 1.279%
* COCC1CCCN1Cc1nc(N)nc(N(C)C)n1 (centres unmarked) : -9.903%
* CCC(N)C(=O)N1CCOCC1 (centres unmarked) : 9.651%
* OCc1csc(N2CCC3(CC2)OCCCC3O)n1 (centres unmarked) : -19.84%
* C[C@@H](CO)NC(=O)C1(C)CCCc2ccccc21 (some centres unmarked) : 25.44%
* Cc1nnc(CN)o1 : 6.275%
* CC(=O)N1CCOC(CN)C1 (centres unmarked) : 2.758%
* CN(C)C(=O)Cn1c(C(F)(F)F)nc2ccccc21 : 8.787%
* COc1ccnc(C(=O)N(C)C(C)c2cccnc2)c1 (centres unmarked) : 16.27%

Repeated from the top, 3 entries:

structure,percent effect
CCN(CC)CC(=O)Nc1ccn(CCC(N)=O)n1,-2.189%
CCOCCN1CCN(CC(=O)N2CCCC2)CC1,6.075%
Cc1cc(C(=O)NCCCO)c2ccc(F)cc2n1,-5.29%

The values are deposited in ChEMBL (CHEMBL3988442, “University of Dundee, Small-Polar-MMV Screening Library” (2021)).